At least one compound was matched to its structure with a doubt left.
Test system: HCl-Induced Formation of Gastric Lesions
Assay: HCl-induced gastric erosions in rats (modified method of Robert et al.)
Format: in vivo, Long Evans rats
Protocol: In the tests described below, gastric erosions produced in rats by the oral instillation of 1.0 mL of 0.75N HC1 were compared with those in rats which had been pretreated with the most preferred compound of Formula I (of Example 1) or with that compound and pepstatin. Comparison tests utilizing pretreatment with the newer commercial product, ranitidine, and with ranitidine and pepstatin, are also shown. Ranitidine is about 4 and 6 times as potent as cimetidine as an inhibitor of gastric acid secretion by the oral route in the rat and dog, respectively.
A modification of the method of Robert et al., [Gastroenterology, 77, 433-443 (1979)] was employed to produce gastric erosions. Adult male, Long Evans rats weighing 280-300 g (Blue Spruce Farms, Alton, New York) were used. […]
The stomachs were removed from the animals, cut along the greater curvature, opened, rinsed with saline and pinned out flat in a standard position for macroscopic examination and scoring of erosions. The stomachs were photographed with a Polaroid® Close Up camera (Polaroid Corporation) and scoring was determined from the photographs. […]
Data were analyzed using the t-test for unpaired data' and ED50 values were calculated from the dose response data using probit analysis [Finney, Probit Analysis, 3rd ed., University Press, Cambridge, England (1971)]. […]

CNC(=C[N+](=O)[O-])NCCSCc1ccc(CN(C)C)o1 [Ranitidine, ranitidine, reference compound]
enhancement of the inhibitory effect by pepstatin (plus 20 mg/kg pepstatin, Example 1 at 50 and 75 mg/kg, ranitidine at 25-100 mg/kg): No enhancement of the inhibitory effect
formation of gastric erosions (pretreatment po, compound alone, Example 1 at 25, 50 or 75 mg/kg, ranitidine at 25, 50, 75 or 100 mg/kg): decreased the formation of gastric erosions in a dose-related manner

Reference: patent publication EP0099122A2, “Compositions comprising pepstatin and an histamine H2-receptor antagonist having an enhanced antiulcer activity” (Bristol-Myers Company, priority 1982, dated 1984)
